The target in this experiment is T1, CRK2-mVenus (Cysteine-rich receptor-like kinase CRK2 fused to mVenus) (Arabidopsis thaliana) (UniProt Q9CAL3).
T1 sequence: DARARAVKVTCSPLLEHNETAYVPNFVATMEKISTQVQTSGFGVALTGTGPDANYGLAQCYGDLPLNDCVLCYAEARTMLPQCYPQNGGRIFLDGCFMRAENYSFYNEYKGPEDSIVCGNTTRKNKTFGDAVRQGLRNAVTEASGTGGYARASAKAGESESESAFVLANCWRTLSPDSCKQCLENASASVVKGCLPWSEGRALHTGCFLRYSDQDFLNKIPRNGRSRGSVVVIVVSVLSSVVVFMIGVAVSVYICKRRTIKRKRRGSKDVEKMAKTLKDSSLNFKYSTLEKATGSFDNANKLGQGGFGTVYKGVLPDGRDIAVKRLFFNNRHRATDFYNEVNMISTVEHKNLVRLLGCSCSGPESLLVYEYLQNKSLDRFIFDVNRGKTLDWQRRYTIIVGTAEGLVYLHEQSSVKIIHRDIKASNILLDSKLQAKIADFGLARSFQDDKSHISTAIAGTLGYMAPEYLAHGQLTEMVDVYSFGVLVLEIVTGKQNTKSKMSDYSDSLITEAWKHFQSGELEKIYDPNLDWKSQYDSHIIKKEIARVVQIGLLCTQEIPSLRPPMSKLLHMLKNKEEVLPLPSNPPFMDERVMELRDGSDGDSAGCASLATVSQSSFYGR
Briefly: FRET or BRET.

Chains of the proteins cited; added tags and fusions are not shown. Lines headed by an entry give the natural chain unless they say otherwise; changes in a name come on top.
UniProt Q9M8T0: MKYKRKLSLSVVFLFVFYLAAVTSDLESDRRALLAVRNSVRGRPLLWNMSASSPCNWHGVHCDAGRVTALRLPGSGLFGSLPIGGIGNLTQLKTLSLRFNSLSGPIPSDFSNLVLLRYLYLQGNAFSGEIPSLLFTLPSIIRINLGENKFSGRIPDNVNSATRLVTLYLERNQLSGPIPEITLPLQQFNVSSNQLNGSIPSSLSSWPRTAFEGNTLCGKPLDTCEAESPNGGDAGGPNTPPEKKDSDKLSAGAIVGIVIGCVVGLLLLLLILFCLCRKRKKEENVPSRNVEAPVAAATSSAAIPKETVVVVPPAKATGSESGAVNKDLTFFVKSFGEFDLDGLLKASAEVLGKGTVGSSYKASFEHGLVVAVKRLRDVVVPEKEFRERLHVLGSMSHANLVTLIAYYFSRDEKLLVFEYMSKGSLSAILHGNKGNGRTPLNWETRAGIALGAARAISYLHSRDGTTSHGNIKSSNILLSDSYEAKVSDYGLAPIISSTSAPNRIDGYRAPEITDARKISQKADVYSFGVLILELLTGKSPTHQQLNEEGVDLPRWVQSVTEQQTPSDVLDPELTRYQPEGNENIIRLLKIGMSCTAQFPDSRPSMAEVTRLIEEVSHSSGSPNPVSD

No constants are given. Whether binding was seen depends on the method and setting. In cells and extracts the contact can be indirect. Binding calls can cover weak binding; strength is not graded here. Sequences can lack the tags named with a protein.

With “QSK1-mCherry (Qian Shou kinase 1 fused to mCherry) (from UniProt Q9M8T0) (receptor)”, the binding entry is “binds”.

Source of the values: publication doi:10.64898/2025.12.09.692923.
